Drawing on US20210270842A1, this text covers binding for 19 molecules.

Sequences of proteins named here, by UniProt entry; tags and fusion partners are left off. A change or cut given only in a name is not applied to a line headed by its entry.
UniProt P01042: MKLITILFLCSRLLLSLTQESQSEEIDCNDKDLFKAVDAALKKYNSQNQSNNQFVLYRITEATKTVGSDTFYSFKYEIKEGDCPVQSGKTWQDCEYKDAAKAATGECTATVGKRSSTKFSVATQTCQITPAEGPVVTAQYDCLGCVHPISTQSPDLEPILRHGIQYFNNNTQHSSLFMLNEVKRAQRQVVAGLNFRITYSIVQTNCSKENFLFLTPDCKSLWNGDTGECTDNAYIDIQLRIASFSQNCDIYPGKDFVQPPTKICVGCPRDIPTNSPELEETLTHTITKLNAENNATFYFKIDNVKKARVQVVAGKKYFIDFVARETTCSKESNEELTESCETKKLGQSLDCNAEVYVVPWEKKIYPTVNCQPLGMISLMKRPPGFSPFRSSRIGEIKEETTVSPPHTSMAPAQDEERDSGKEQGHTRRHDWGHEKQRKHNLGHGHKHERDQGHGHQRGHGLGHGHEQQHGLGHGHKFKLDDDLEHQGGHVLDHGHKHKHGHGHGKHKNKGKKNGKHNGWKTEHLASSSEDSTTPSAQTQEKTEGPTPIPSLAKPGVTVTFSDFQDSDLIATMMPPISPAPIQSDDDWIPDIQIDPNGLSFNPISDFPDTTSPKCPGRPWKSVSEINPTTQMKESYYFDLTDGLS

B1: 559B-M0042-E06 (Fab, V domains shown)
VH: EVQLLESGGGLVQPGGSLRLSCAASGFTFSMYKMSWVRQAPGKGLEWVSVISPSGGRTYYADSVKGRFTISRDNSKNTLYLQMNSLRAEDTAVYYCARGTRTSGLDYWGQGTLVTVSS
VL: QSALTQPASVSGSPGQSITISCTGTSSDVGGYKYVSWYQQHPGKAPKLVIYEVSNRPSGVSNRFSGSKSGNTASLTISGLQAEDEADYYCSSYTSSTTVVFGGGTKLTVL
B2: 559B-M0047-H01 (Fab, V domains shown)
VH: EVQLLESGGGLVQPGGSLRLSCAASGFTFSFYMMYWVRQAPGKGLEWVSSISSSGGFTRYADSVKGRFTISRDNSKNTLYLQMNSLRAEDTAVYYCARVRGLAVAAPDYWGQGTLVTVSS
VL: QSELTQPASVSGSPGQSITISCIGTSSDIGTYNYVSWYQQHPGKAPKLMIYDVNTRPSGVSDRFSGSKSGNTASLTISGLQAEDEADYYCSSYTTSVTWVFGGGTTLTVL
B3: 559B-M0038-H03 (Fab, V domains shown)
VH: EVQLLESGGGLVQPGGSLRLSCAASGFTFSKYDMHWVRQAPGKGLEWVSRISSSGGKTEYADSVKGRFTISRDNSKNTLYLQMNSLRAEDTAVYYCAREYRYCTANTCSLYGMDVWGRGTTVTVSS
VL: DIQMTQSPSSLSASVGDRVAITCRTSQGVRSDFAWYQQTPGKAPRRLIYAAFILDNGVPSRFSGSGSGTEFTLTISSLQPEDFATYYCQQSYSTPLTFGGGTKVEMK
B4: 559B-M0039-D08 (Fab, V domains shown)
VH: EVQLLESGGGLVQPGGSLRLSCAASGFTFSNYAMQWVRQAPGKGLEWVSWIYSSGGPTYYADSVKGRFTISRDNSKNTLYLQMNSLRAEDTAVYYCARGLPGQPFDYWGQGTLVTVSS
VL: QSELTQPPSASGTPGQRVTISCSGSSSNIGNNYVYWYQQFPGTAPKLLIYRNNQRPSGVPDRFSGSKSGTSASLAISGLRSEDEADYYCATWDDRLSGWVFGGGTKLTVL
B5: 559B-M0021-G11 (Fab, V domains shown)
VH: EVQLLESGGGLVQPGGSLRLSCAASGFTFSPYPMTWVRQAPGKGLEWVSGISSSGGFTPYADSVKGRFTISRDNSKNTLYLQMNSLRAEDTAVYYCARMVRGVIKAFDIWGQGTMVTVSS
VL: B4 VL with S2Y, N31S, N32H, Y35F, F40L, T43A, D94N, R95S, G98A
B6: 559B-M0039-H06 (Fab, V domains shown)
VH: EVQLLESGGGLVQPGGSLRLSCAASGFTFSAYDMHWVRQAPGKGLEWVSSIWPSGGGTYYADSVKGRFTISRDNSKNTLYLQMNSLRAEDTAVYYCARGDYDYGDFTDAFDIWGQGTMVTVSS
VL: QSALTQPASVSGSPGQSITISCTGTSSDVGSYNLVSWYQQHPGKAPKLMIYEGSKRPSGVPDRFSGSKSGNTASLIISGLQAEDEADYYCCSYAGSYSYVFGTGTRVTVL
B7: 559B-M0048-D12 (Fab, V domains shown)
VH: EVQLLESGGGLVQPGGSLRLSCAASGFTFSRYQMTWVRQAPGKGLEWVSSIGSSGGFTNYADSVKGRFTISRDNSKNTLYLQMNSLRAEDTAVYYCARLPANFYYYMDVWGKGTTVTVSS
VL: DIQMTQSPSSLSASVGDRVTITCRASQNIYSFLNWYQQKPGKAPKLLIYATSSLQSGVPSRFSGSGSGTDFTLTISSLQPEDFASYYCQQNYNIPWTFGQGTKVEIK
B8: 559B-M0038-F04 (Fab, V domains shown)
VH: EVQLLESGGGLVQPGGSLRLSCAASGFTFSKYEMMWVRQAPGKGLEWVSSISPSGGYTMYADSVKGRFTISRDNSKNTLYLQMNSLRAEDTAVYYCARHRSKWNDAPFDSWGQGTLVTVSS
VL: DIQMTQSPSSLSASVGDRVAITCRASQSIDTYLNWYQQKPGKAPKLLIYAASKLEDGVPSRFSGSGTGTDFTLTIRSLQPEDFASYFCQQSYSSPGITFGPGTKVEIK
B9: 559B-M0017-H08 (Fab, V domains shown)
VH: EVQLLESGGGLVQPGGSLRLSCAASGFTFSPYWMHWVRQAPGKGLEWVSVISPSGGGTGYADSVKGRFTISRDNSKNTLYLQMNSLRAEDTAVYYCARESRGSGSHEDYWGQGTLVTVSS
VL: DIQMTQSPATLSLSPGERATLSCRASQSVSSYLAWYQQKPGQAPRLLIYGASNRGTGIPARFSGSGSGTEFTLTISSLQSEDFAVYFCQQYKNWPNLTFGGGTKVDIK
B10: 559B-M0067-E02 (Fab, V domains shown)
VH: EVQLLESGGGLVQPGGSLRLSCAASGFTFSLYPMVWVRQAPGKGLEWVSSIYPSGGFTTYADSVKGRFTISRDNSKNTLYLQMNSLRAEDTAVYYCARSSRYYYYGMDVWGQGTTVTVSS
VL: QYELTQPPSMSGTPGQRVTISCSGSSSNIGSEYVYWFQQLPGTAPKLLIYRNDQRPSGVPDRFSGSKSGTSASLAISGLRSEDETDYYCSTWDDTLRTGVFGGGTKVTVL
B11: 559B-M0044-E09 (Fab, V domains shown)
VH: EVQLLESGGGLVQPGGSLRLSCAASGFTFSQYSMGWVRQAPGKGLEWVSSIYSSGGSTQYADSVKGRFTISRDNSKNTLYLQMNSLRAEDTATYYCARTRRGWFGEDYYYYMDVWGKGTTVTVSS
VL: DIQMTQSPSSLSASVGDRITITCRASQGIRNDVGWYQQKPGKAPQRLIYAASSLQSGVPSRFSGSGSGTEFTLTISSLQPEDFATYYCLQHNSYPLTFGGGTKVEIK
B12: 559B-M0036-G12 (Fab, V domains shown)
VH: B11 VH with Q31R, S33Y, G35A, S50G, Y52V, S53P, S57Q, Q59G, T93V, T120L
VL: DIQMTQSPGTLSLSPGERATVSCRASQSVGSTYLAWYQHKPGQAPRLLIYGASSRATGIPDRFSGSGSGTDFTLTISSLEPEDFAIYYCQHFHTSPPGITFGQGTRLEIK
B13: 559B-M0068-C07 (Fab, V domains shown)
VH: EVQLLESGGGLVQPGGSLRLSCAASGFTFSSYQMHWVRQAPGKGLEWVSGIYSSGGSTPYADSVKGRFTISRDNSKNTLYLQMNSLRAEDTAVYYCARGHHGMDVWGQGTTVTVSS
VL: DIQMTQSPSSVSASVGDRVTITCRASQGISSWLAWYQQKPGKAPKLLIYAASNLQSGVPSRFSGSGSGTDFTLTISSLQPEDFATYYCQKYNIAPYTFGQGTKLEIK
B14: 559B-M0019-E12 (Fab, V domains shown)
VH: EVQLLESGGGLVQPGGSLRLSCAASGFTFSGYNMYWVRQAPGKGLEWVSRISPSGGWTSYADSVKGRFTISRDNSKNTLYLQMNSLRAEDTAVYYCTRGQWMDWWGQGTMVTVSS
VL: DIQMTQSPSSLSASVGDRVIITCRASQNITGYLNWYQQKPGKAPNLLIYDASRMNTGVPSRFRGSGSGTDYILTIYKLEPEDIGTYFCQHTDDFSVTFGGGTKVDLK
B15: 559B-M0061-G06 (Fab, V domains shown)
VH: EVQLLESGGGLVQPGGSLRLSCAASGFTFSKYTMWWVRQAPGKGLEWVSVISSSGGKTYYADSVKGRFTISRDNSKNTLYLQMNSLRAEDTAVYYCARTANRAFDIWGQGTMVTVSS
VL: DIQMTQSPAALSVSPGERATLSCRASQSVSSDLAWYQQKPGQAPRLLIHGASTRATGIPARFSGSGSGREFTLTISSLQSEDFAVYYCQQYNDWPPLFGPGTKVNIK
B16: 559B-M0003-C08 (Fab, V domains shown)
VH: EVQLLESGGGLVQPGGSLRLSCAASGFTFSPYMMYWVRQAPGKGLEWVSSISPSGGKTWYADSVKGRFTISRDNSKNTLYLQMNSLRAEDTAVYYCARLGGSSSYYYYYYYGMDVWGQGTTVTVSS
VL: QSALTQSPSASGTPGQRVTISCSGSSSNIGGNTVNWYQQFPGTAPKLLIYSNNQRPSGVPDRFSGSKSGTSASLAISGLQSEDEAIYYCASWDDRLNGHWVFGGGTRLTVL
B17: 559B-M0044-C05 (Fab, V domains shown)
VH: EVQLLESGGGLVQPGGSLRLSCAASGFTFSIYQMYWVRQAPGKGLEWVSSIYSSGGRTFYADSVKGRFTISRDNSKNTLYLQMNSLRAEDTAVYYCATRGSWYVGGNEYFQHWGQGTLVTVSS
VL: QSVLTQSPSLSLSPGQTASIPCSGDTLGNKFVSWYQQKPGQSPVLVIYQDTKRPSGIPERFSGSNSGNTATLTITGTQAMDEADYYCQVWDSNSYAFGPGTKVTVL
B18: 559B-M0035-F05 (Fab, V domains shown)
VH: EVQLLESGGGLVQPGGSLRLSCAASGFTFSHYPMAWVRQAPGKGLEWVSGIVSSGGRTVYADSVKGRFTISRDNSKNTLYLQMNSLRAEDTAVYYCARDPYDFWSEGAFDIWGQGTMVTVSS
VL: QSVLTQPPSASGTPGQRVTISCSGSSSNIGNNFVYWYHQVPGTAPKLLIYKNNQRPSGVPDRFSGSKSAASASLAISGLRSEDEADYYCAAWDNSLSGFYVFGAGTKVTVL
B19: 559B-M0035-H09 (Fab, V domains shown)
VH: EVQLLESGGGLVQPGGSLRLSCAASGFTFSWYGMHWVRQAPGKGLEWVSRIGPSGGPTSYADSVKGRFTISRDNSKNTLYLQMNSLRAEDTAVYYCARGYYGTGRYFQHWGQGTLVTVSS
VL: DIQMTQSPDSLSLSPGDRATLSCRASQSVGSDYLAWYQQKPGQAPRLLIYDASNRATGIPARFSGSGSGTDFTLTISSLEPEDFAVYYCQQRSNWPPTFGGGTKVEIK

Numbering of substitutions follows the chain as printed. Results are given in words; binding and its absence hold for the method and conditions named. Some results given as binding are weak or reduced against the parent protein; the word gives no strength.

The first experiment concerns the target cleaved high molecular weight kininogen (HMWK) (human) (UniProt P01042). The experiment in a line: ELISA: Fab coated on 96-well plate, LowCross block, biotinylated antigen, streptavidin-HRP; signal over uncoated well.
Consider B1, for which the binding result was “binds”.
For the molecule B2, the binding entry is “binds”.
With B3, the binding result is reported as “binds”.
For B4, the binding entry is on record as “binds”.
As for B5, the binding entry is on record as “binds”.
On to B6, for which the binding entry is given as “binds”.
Take B7: the binding entry is “binds”.
Take B8: the binding entry is on record as “binds”.
Turning to B9, the binding entry was “binds”.
Turning to B10, the binding entry was “binds”.
Turning to B11, the binding entry is listed as “binds”.
In the case of B12, the binding result is “binds”.
As to B13, the binding entry is recorded as “binds”.
For the molecule B14, the binding entry is “binds”.
For the molecule B15, the binding result is on record as “binds”.
As for B16, the binding result is on record as “binds”.
The same measure, in the same setting: with B17 the entry was “binds”.
Take B18: the binding result was “binds”.
With B19, the binding entry is “binds”.

A further experiment has the same target. Put plainly: ELISA; Fab coated on 96-well plate, biotinylated antigen, streptavidin-HRP.
With B1, the binding result is recorded as “binds”.
As for B2, the binding entry is “binds”.
Regarding B3, the binding entry is “binds”.
On the same count and under the same terms, for B4 the value was “binds”; for B5, “binds”; for B6, “binds”.
As to B7, the binding entry is “binds”.
Take B8: the binding entry is “binds”.
In the case of B9, the binding entry is given as “binds”.
With B10, the binding result was “binds”.
As for B11, the binding entry is listed as “binds”.
B12: the binding entry was “binds”.
B13: the binding entry was “binds”.
For the molecule B14, the binding entry was “binds”.
On the same count and under the same terms, for B15 the value was “binds”; for B16, “binds”.
Take B17: the binding entry is reported as “binds”.
Regarding B18, the binding entry is reported as “binds”.
With B19, the binding result is “binds”.
